Some of the results follow. These are further read-outs of the screen, such as a control signal, another cell line or another target. No call is given for them. Compounds called inactive in the main read-out are mostly missing here. Potencies come from curve fits of mixed quality, noted in brackets.

The nature of the assay: IkB Signaling. The settings on record: ABC-DLBCL IkBa-CBG/CBR dual luciferase ratio (green luciferase fused to IkBa over red control in OCI-Ly3 lymphoma cells), 4 h. The method, boiled down:
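In this assay, an IκBα–CBG68 fusion accumulates when IKK-driven degradation is blocked; native CBR normalizes for cell number. OCI-Ly3 cells were treated 4 h with compound and doxycycline, then green and red light read after Chroma-Glo addition.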

Where [1] appears, read: measured here: control luc red channel unless noted.

Take `COc1ccccc1N1CCN(C(=O)c2cn(-c3ccccc3)nc2-c2cccnc2)CC1`: under setting [1], the AC50 was 15.8 µM [falling, partial curve].

For `Cc1cc(C)n(CCc2nc3c4ccccc4nc(N4CCN(c5ccccc5F)CC4)n3n2)n1`, the AC50 under setting [1] is 1 µM [falling, partial curve].

Regarding `Cc1ccc(NC(=O)/C(C#N)=C/c2ccc(C)o2)cc1`, the AC50 under setting [1] was 12.6 µM [falling, partial curve].

In the case of `CC(C)CCNC(=O)c1ccc2c(c1)NC(=O)C(CS(=O)(=O)Cc1cccc(Br)c1)N2` (configuration not stated), the AC50 under setting [1] is 15.8 µM [falling, partial curve].

As to `COc1ccc(-c2cc(C(F)F)nc(-n3nc(C)cc3C)n2)cc1`, the AC50 under setting [1] was 31.6 µM [falling, single point].

For the molecule `CCOC(=O)C1CCC(CN(Cc2ccc(Cl)cc2)S(=O)(=O)c2ccc(Br)cc2)CC1` (configuration not stated), under setting [1], the half-maximal activity concentration (AC50) was 25.1 µM [falling, single point].

For `COc1ccc(-c2onc(C)c2C)cc1S(=O)(=O)N(C)Cc1ccco1`, the AC50 under setting [1] was 39.8 µM [falling, single point].

Take `CCS(=O)(=O)N1CCc2cc(C(=O)NCCc3ccccc3)ccc21`: the AC50 under setting [1] is 0.0501 µM [falling, full curve].

Turning to `COc1ccc(NC(=O)c2sc3nc(C)c(C(=O)Nc4ccc(C)cc4C)c(-c4ccc(C)o4)c3c2N)cc1`, the AC50 under setting [1] was 3.98 µM [falling, partial curve].

`COc1cccc(C(=O)Nc2cc(C)c3c(=O)oc4ccccc4c3n2)c1`: under setting [1], the AC50 was 1.58 µM [rising, full curve].

For `Cc1ccc(Nc2nc(C)cc(C)n2)c(C(=O)O)c1`, under setting [1], the AC50 was 0.794 µM [rising, full curve].

Turning to `CCc1ccc(NC(=O)CN2C(=O)C3(SCC(=O)N3c3ccccc3)c3ccccc32)cc1` (configuration not stated), the AC50 under setting [1] was 12.6 µM [falling, partial curve].

As to `CNc1ccc(O)cc1`, the AC50 by setting is: (measured here: IkB-luc green channel) 7.94 µM [rising, partial curve, poor fit]; (measured here: control luc red channel) 12.6 µM [falling, partial curve].

On to `Cc1ccc(Cl)cc1NC(=O)CSC1=Nc2ccccc2C2=NC(Cc3ccccc3)C(=O)N12` (configuration not stated), for which the AC50 under setting [1] was 39.8 µM [falling, partial curve].

Regarding `COc1ccc(C(c2sc3nc(C)nn3c2O)N2CC(C)OC(C)C2)cc1OC` (configuration not stated), the AC50 under setting [1] was 0.398 µM [falling, full curve].

Consider `O=C(CCSc1nc(-c2ccco2)cc(C(F)(F)F)n1)N1CCN(c2ccccc2)CC1`, for which, under setting [1], the AC50 is 12.6 µM [falling, partial curve].

For the molecule `CCCCN(CCCC)CC(O)Cn1cc(/C=C/C(=O)c2ccccc2)c2ccccc21` (configuration not stated), the AC50 under setting [1] was 10 µM [falling, partial curve].

Turning to `COc1cccc(-c2nc(CSCC(=O)NCCc3ccc(Cl)cc3)c(C)o2)c1`, the AC50 under setting [1] was 12.6 µM [falling, partial curve].

Take `O=C(Nc1ccc2c(c1)OCO2)C1Cc2ccccc2CN1S(=O)(=O)c1cccs1` (configuration not stated): the AC50 under setting [1] was 15.8 µM [falling, partial curve].

In the case of `C=CCSc1nnc(-c2cc(Br)ccc2N)c(=O)[nH]1`, the AC50 under setting [1] is 12.6 µM [falling, partial curve].

Consider `CCOC(=O)c1cc(-c2ccccc2)n(CC(=O)N(C)c2ccc(OC)cc2)c1C`, for which the AC50 under setting [1] was 31.6 µM [falling, partial curve].

For `CCN(CCCNC(=O)c1cc2cc3ccc(C)cc3nc2s1)c1ccccc1`, the AC50 under setting [1] is 15.8 µM [falling, partial curve].

With `CCOC(=O)c1c(NC(=O)CSc2nnc(-c3cccnc3)n2Cc2ccco2)sc(C)c1C`, the AC50 under setting [1] was 31.6 µM [falling, partial curve].

In the case of `CCOC(=O)CCNC(=O)Nc1ccc2nc(C)n(Cc3ccccc3Cl)c(=O)c2c1`, under setting [1], the AC50 is 25.1 µM [falling, partial curve].

As to `Cc1ccc(NC(=O)c2oc3ccc(S(=O)(=O)N(C)C4CCCCC4)cc3c2C)cc1Cl`, under setting [1], the AC50 was 12.6 µM [falling, partial curve].

As for `O=S(=O)(c1cccc(F)c1)N1CCC(c2nc3ccccc3s2)CC1`, the AC50 under setting [1] is 0.2 µM [rising, full curve].

Take `COc1ccc(S(=O)(=O)N(CCc2ccccc2)CC(=O)Nc2cccc(OC)c2)cc1`: the AC50 under setting [1] is 12.6 µM [falling, partial curve].

Consider `CCOc1ccc2nc(N3CCC(C(=O)N4CCN(C(=O)c5ccco5)CC4)CC3)sc2c1`, for which the AC50 under setting [1] is 15.8 µM [falling, partial curve].

On to `CCOC(=O)c1cccc(NC(=O)C2CCN(S(=O)(=O)c3ccc4c(c3)oc(=O)n4C)CC2)c1`, for which the AC50 under setting [1] is 15.8 µM [falling, partial curve].

Consider `CC(=O)OCC(=O)[C@@]1(O)[C@H](C)C[C@@H]2[C@H]3CCC4=CC(=O)C=C[C@]4(C)[C@]3(F)[C@@H](O)C[C@@]21C`, for which the AC50 under setting [1] was 5.01 nM [rising, full curve] [measured here: IkB-luc green channel].

Take `COc1ccccc1N1CCN(c2ncnc3c2cnn3C)CC1`: the AC50 under setting [1] is 0.0126 µM [falling, full curve, poor fit].

`CCOc1ccc(C2c3cc(OCC)c(OCC)cc3CC(=O)N2c2ccc(C(=O)O)cc2)cc1OCC` (configuration not stated): the AC50 under setting [1] was 20 µM [falling, partial curve].

Consider `COc1ccc(N=[N+]([O-])c2ccc(OC)cc2)cc1`, for which, under setting [1], the AC50 was 5.01 µM [falling, full curve, poor fit].

For the molecule `CCc1ccc(C(=O)COC(=O)C(Cc2c[nH]c3ccccc23)NC(=O)c2ccc(Br)cc2)cc1` (configuration not stated), under setting [1], the AC50 was 3.98 µM [falling, full curve].

For `CCOc1ccc(C2CC(=O)c3c([nH]c(C(=O)OCc4ccccc4)c3C)C2)cc1` (configuration not stated), the AC50 under setting [1] is 1 µM [rising, full curve].

For `COc1ccc(CCN2C(=O)c3oc4ccc(F)cc4c(=O)c3C2c2ccc(C(C)(C)C)cc2)cc1` (configuration not stated), the AC50 under setting [1] was 0.398 µM [falling, full curve, poor fit].

On to `CCCn1nnc(NC(=O)c2cc3ccccc3o2)n1`, for which the half-maximal activity concentration (AC50) under setting [1] is 10 µM [falling, partial curve].

For `Cc1ccc(C(=O)Nc2ccc(O)c(C(=O)O)c2)o1`, the AC50 under setting [1] is 20 µM [falling, partial curve].

On to `COc1ccc(-c2nc3sc(CCNC(=O)c4cc(Cl)ccc4OC)c(C)n3n2)cc1`, for which the AC50 under setting [1] was 25.1 µM [falling, partial curve].

As to `O=C(Cc1ccccc1)Nc1ccccc1N1CCN(c2ccccc2)CC1`, under setting [1], the AC50 is 15.8 µM [falling, partial curve].

Turning to `CN(Cc1ccccc1)S(=O)(=O)c1ccc(F)c(C(=O)Nc2cccc(Cl)c2Cl)c1`, under setting [1], the AC50 is 31.6 µM [falling, partial curve, poor fit].

In the case of `Cc1ccc(C(C)(C)C)c(OCC(=O)NCCc2nc3ccccc3[nH]2)c1`, the AC50 under setting [1] was 20 µM [falling, partial curve].

Consider `O=C(NCc1cccs1)c1nc2c(nnn2Cc2ccccc2Cl)c(=O)[nH]1`, for which the AC50 under setting [1] is 15.8 µM [falling, partial curve].

With `CCOc1ccccc1-n1nnc(-c2nc(-c3ccccc3)no2)c1N`, under setting [1], the AC50 is 5.01 µM [falling, partial curve].

`Cc1c(/C=C(\C#N)C(=O)Nc2cccc(Cl)c2)c2ccccc2n1Cc1ccccc1Cl`: the AC50 under setting [1] is 0.794 µM [falling, full curve].

With `Cc1c(Cl)cccc1NC(=O)CN1C(=O)COc2ccc(S(=O)(=O)Nc3ccccc3)cc21`, the AC50 under setting [1] was 10 µM [falling, full curve].

Turning to `COc1cccc(-n2c(SCC(=O)NC3CCCCC3)nc3n[nH]c(C)c3c2=N)c1`, the AC50 under setting [1] was 15.8 µM [falling, partial curve].

As to `COc1ccc(NC(=O)c2ccc3c(c2)CCN3S(=O)(=O)c2ccc(C)cc2)cc1Cl`, under setting [1], the AC50 is 0.316 µM [rising, full curve].

Regarding `CCOC(=O)N1CCC(Nc2cccc(SC)c2)CC1`, the AC50 under setting [1] was 25.1 µM [falling, partial curve].

For the molecule `CC(C)NS(=O)(=O)c1ccc2nc(NC(=O)c3cncc(Br)c3)sc2c1`, the AC50 under setting [1] is 39.8 µM [falling, single point].

For `COc1cc(NC(=O)CSc2nc3nc(C)c(Cc4ccc(C)cc4)c(C)n3n2)cc(OC)c1`, the AC50 under setting [1] was 39.8 µM [falling, partial curve, poor fit].

`CCOC(=O)N1CCc2c(sc3c2c(=O)n(CCc2ccccc2)c(=O)n3Cc2ccc(F)cc2)C1`: the AC50 under setting [1] was 12.6 µM [falling, partial curve].

In the case of `O=C(CSc1nc(-c2ccccc2)no1)N1CCCCC1`, the AC50 under setting [1] is 1.26 µM [falling, partial curve].

Regarding `Cc1ccccc1-c1nn2c(=O)cc(CN3CCN(C(=O)c4ccc(C(C)(C)C)cc4)CC3)nc2s1`, the AC50 under setting [1] is 31.6 µM [falling, single point].

With `CCCCCCOC(=O)C(C#N)c1nc2ccccc2nc1N1CCN(C)CC1` (configuration not stated), the AC50 under setting [1] is 39.8 µM [falling, partial curve].

On to `CCOc1ccccc1-n1cc2c(c1-c1ccc(OC)cc1)c(=O)n(C)c(=O)n2C`, for which the AC50 under setting [1] is 39.8 µM [falling, single point].

Turning to `COC(=O)c1ccc(NC(=O)CN2CCN(c3ccc(Cl)cc3)CC2)cc1`, the AC50 under setting [1] is 20 µM [falling, partial curve].

As to `Cc1ccc(-n2c(SCC(=O)NCc3ccc(F)cc3)nc3c([nH]c4ccccc43)c2=O)cc1`, the AC50 under setting [1] was 3.16 µM [rising, partial curve].

`Cc1cc(C)cc(NC(=O)CCc2c(C)nn(-c3ccc(N4CCCC4)nn3)c2C)c1`: the AC50 under setting [1] is 15.8 µM [falling, single point].

Consider `COc1cc2c(cc1OC)C(COc1ccc(F)cc1)N(C(=O)Cc1ccc(F)cc1)CC2` (configuration not stated), for which the AC50 under setting [1] was 39.8 µM [falling, single point].

In the case of `COc1ccccc1C(=O)NCCc1nc2ccccc2n1C`, the AC50 under setting [1] was 10 µM [falling, partial curve].

The record behind these values is PubChem BioAssay AID445 (National Center for Advancing Translational Sciences (NCATS), 2006).
